Assay results from publication PMC8260207.
No constants are given. Whether binding was seen depends on the method and setting. In cells and extracts the contact can be indirect. These calls come from enrichment with a bait or labelling near it, and not all partners need be listed. One block for each molecule: values may come before it.

Sequences of proteins named here, by UniProt entry; tags and fusion partners are left off.
UniProt Q8N9N2: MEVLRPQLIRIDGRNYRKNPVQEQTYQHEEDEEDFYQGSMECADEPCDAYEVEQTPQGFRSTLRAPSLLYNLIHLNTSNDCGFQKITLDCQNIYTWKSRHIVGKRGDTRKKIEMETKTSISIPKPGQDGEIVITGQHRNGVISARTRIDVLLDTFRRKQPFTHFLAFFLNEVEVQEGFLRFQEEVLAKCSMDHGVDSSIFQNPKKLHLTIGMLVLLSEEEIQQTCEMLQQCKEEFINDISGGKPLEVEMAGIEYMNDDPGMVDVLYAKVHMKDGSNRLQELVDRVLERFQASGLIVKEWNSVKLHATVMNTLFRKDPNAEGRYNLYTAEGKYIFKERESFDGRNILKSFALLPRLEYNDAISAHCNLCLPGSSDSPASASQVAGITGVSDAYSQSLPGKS
UniProt Q8N3C0: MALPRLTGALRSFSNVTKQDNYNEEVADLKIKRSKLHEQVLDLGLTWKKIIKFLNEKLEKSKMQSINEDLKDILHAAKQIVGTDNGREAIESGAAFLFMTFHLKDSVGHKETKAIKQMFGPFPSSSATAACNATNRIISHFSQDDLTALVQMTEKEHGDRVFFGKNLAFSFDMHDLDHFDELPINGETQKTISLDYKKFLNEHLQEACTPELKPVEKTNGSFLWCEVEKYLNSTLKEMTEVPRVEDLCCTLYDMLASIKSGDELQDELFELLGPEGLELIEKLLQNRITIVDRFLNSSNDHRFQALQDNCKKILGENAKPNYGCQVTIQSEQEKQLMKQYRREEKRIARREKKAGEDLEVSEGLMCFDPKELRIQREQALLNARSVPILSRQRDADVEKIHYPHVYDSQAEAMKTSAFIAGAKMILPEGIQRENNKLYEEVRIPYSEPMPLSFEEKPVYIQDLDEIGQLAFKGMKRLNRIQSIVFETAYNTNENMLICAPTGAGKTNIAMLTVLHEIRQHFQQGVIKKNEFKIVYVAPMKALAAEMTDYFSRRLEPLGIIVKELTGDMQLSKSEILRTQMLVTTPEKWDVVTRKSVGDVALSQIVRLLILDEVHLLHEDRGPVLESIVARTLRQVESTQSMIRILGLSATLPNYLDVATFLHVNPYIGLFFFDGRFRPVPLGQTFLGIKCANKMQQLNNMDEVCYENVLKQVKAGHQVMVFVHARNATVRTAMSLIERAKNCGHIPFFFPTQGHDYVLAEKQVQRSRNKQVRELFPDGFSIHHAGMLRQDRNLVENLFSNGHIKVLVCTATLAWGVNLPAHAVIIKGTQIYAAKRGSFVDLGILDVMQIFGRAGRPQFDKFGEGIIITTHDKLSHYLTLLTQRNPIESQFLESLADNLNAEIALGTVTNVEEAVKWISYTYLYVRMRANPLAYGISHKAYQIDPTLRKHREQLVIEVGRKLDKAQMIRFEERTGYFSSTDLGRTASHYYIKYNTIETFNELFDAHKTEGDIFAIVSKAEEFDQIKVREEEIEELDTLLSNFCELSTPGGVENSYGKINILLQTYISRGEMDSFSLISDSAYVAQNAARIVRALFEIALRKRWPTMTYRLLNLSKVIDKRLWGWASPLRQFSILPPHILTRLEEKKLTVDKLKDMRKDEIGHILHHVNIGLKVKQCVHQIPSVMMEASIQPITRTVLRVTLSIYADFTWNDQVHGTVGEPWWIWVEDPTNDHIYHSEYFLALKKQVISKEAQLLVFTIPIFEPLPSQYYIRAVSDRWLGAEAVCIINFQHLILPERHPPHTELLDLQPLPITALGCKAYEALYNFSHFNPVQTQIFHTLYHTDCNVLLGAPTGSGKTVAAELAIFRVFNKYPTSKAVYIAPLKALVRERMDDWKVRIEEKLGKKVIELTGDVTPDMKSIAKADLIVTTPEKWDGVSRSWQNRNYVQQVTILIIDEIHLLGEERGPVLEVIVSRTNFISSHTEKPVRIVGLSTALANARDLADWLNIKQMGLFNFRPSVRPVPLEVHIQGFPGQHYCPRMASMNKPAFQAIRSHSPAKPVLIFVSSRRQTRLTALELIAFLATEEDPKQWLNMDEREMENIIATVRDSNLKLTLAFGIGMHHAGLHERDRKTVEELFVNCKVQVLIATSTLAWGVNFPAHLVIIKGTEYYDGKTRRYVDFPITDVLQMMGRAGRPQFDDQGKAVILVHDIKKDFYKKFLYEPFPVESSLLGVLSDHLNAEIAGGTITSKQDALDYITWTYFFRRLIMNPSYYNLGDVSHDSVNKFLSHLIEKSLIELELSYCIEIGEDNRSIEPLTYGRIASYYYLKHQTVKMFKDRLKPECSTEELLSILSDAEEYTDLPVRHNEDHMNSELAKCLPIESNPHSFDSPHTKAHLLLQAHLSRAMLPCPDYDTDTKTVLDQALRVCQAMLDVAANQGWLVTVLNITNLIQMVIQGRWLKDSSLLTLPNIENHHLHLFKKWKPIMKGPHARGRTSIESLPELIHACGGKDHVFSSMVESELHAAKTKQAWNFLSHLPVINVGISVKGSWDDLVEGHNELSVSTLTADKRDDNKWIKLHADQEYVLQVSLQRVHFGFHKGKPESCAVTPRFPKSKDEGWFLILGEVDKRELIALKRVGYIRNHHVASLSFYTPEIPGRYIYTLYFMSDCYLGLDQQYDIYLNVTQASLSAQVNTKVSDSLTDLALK

Experiments:
Experiment in all cases: affinity purification with mass spectrometry; ANTI-FLAG M2 Affinity Gel against Protein G Agarose on whole cell extract (Benzonase, 150 mM NaCl) of Flp-In T-REx HEK293 cells expressing Flag-HA-tagged ASCC1, ASCC2 or ASCC3; elution with 3xFLAG peptide; SILAC
[1] = target: ASCC1 (human (endogenous in HEK293)) (UniProt Q8N9N2)
[2] = target: T1, ASCC2 (human (endogenous in HEK293)) (UniProt Q9H1I8)
T1 sequence: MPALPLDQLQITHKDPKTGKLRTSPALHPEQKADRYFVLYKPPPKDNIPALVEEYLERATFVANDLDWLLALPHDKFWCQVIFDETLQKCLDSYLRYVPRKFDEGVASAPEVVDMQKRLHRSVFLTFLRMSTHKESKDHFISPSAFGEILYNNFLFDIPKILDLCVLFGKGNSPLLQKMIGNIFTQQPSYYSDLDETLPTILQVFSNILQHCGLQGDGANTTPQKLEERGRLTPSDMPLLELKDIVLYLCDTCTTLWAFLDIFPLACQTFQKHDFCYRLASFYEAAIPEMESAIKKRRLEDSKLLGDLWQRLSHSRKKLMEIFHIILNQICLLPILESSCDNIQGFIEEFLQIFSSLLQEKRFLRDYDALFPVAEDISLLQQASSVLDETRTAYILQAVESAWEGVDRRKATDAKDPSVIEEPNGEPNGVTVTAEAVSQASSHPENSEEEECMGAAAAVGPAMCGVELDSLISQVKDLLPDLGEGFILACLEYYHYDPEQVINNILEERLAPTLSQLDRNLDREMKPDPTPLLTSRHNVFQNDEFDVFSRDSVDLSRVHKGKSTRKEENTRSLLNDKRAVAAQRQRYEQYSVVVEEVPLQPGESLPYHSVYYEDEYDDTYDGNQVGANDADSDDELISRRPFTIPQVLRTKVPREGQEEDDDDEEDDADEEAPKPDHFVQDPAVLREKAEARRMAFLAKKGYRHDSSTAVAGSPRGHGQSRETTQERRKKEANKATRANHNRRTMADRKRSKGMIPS

[3] = target: ASCC3 (human (endogenous in HEK293)) (UniProt Q8N3C0)

binding [1]: binds
binding [2]: binds
Molecule: ASCC3 (from UniProt Q8N3C0 1-2202)

binding [1]: binds
B1: ASCC2 (protein, UniProt Q9H1I8 1-757)
chain: T1 sequence

binding [1]: binds
binding [2]: binds
binding [3]: binds
B2: TRIP4 (protein, UniProt Q15650 1-581)
chain: MAVAGAVSGEPLVHWCTQQLRKTFGLDVSEEIIQYVLSIESAEEIREYVTDLLQGNEGKKGQFIEELITKWQKNDQELISDPLQQCFKKDEILDGQKSGDHLKRGRKKGRNRQEVPAFTEPDTTAEVKTPFDLAKAQENSNSVKKKTKFVNLYTREGQDRLAVLLPGRHPCDCLGQKHKLINNCLICGRIVCEQEGSGPCLFCGTLVCTHEEQDILQRDSNKSQKLLKKLMSGVENSGKVDISTKDLLPHQELRIKSGLEKAIKHKDKLLEFDRTSIRRTQVIDDESDYFASDSNQWLSKLERETLQKREEELRELRHASRLSKKVTIDFAGRKILEEENSLAEYHSRLDETIQAIANGTLNQPLTKLDRSSEEPLGVLVNPNMYQSPPQWVDHTGAASQKKAFRSSGFGLEFNSFQHQLRIQDQEFQEGFDGGWCLSVHQPWASLLVRGIKRVEGRSWYTPHRGRLWIAATAKKPSPQEVSELQATYRLLRGKDVEFPNDYPSGCLLGCVDLIDCLSQKQFKEQFPDISQESDSPFVFICKNPQEMVVKFPIKGNPKIWKLDSKIHQGAKKGLMKQNKAV
